Test results: patent US20140065649A1, “TEST SYSTEMS AND METHODS FOR IDENTIFYING AND CHARACTERISING LIPID LOWERING DRUGS” (Sanofi, priority 2011, published 2014)

System: hepatic low density lipoprotein receptor (LDLR) protein
Test: Study 2: hepatic LDLR levels by Western blot
Format: in vivo, Mesocricetus auratus
Details: Study 2, Western blot; 316P 10 mg/kg, atorvastatin 2×20 mg/kg

CC(C)c1c(C(=O)Nc2ccccc2)c(-c2ccccc2)c(-c2ccc(F)cc2)n1CC[C@@H](O)C[C@@H](O)CC(=O)O [atorvastatin]
level of hepatic LDLR expression compared with the PBS control groups: 89%
level of hepatic LDLR protein versus PBS control: 0.89 fold
